Experimental data as given in PMC4830977 (Scientific Reports, 2016).
No constants are given. Whether binding was seen depends on the method and setting. Binding seen in cells or lysates may run through a third protein.

By UniProt entry, the sequences of proteins in these tests, tags left out. Where a name states a change or a piece, a line headed by the entry shows the natural chain unless it says otherwise. Residues count along the entry.
UniProt P35443, residues 286-462: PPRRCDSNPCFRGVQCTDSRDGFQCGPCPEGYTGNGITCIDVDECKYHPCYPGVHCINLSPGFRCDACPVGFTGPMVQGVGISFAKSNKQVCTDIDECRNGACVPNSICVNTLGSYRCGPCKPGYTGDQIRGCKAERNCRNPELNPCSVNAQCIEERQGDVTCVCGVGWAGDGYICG
UniProt P54290, residues 25-1091: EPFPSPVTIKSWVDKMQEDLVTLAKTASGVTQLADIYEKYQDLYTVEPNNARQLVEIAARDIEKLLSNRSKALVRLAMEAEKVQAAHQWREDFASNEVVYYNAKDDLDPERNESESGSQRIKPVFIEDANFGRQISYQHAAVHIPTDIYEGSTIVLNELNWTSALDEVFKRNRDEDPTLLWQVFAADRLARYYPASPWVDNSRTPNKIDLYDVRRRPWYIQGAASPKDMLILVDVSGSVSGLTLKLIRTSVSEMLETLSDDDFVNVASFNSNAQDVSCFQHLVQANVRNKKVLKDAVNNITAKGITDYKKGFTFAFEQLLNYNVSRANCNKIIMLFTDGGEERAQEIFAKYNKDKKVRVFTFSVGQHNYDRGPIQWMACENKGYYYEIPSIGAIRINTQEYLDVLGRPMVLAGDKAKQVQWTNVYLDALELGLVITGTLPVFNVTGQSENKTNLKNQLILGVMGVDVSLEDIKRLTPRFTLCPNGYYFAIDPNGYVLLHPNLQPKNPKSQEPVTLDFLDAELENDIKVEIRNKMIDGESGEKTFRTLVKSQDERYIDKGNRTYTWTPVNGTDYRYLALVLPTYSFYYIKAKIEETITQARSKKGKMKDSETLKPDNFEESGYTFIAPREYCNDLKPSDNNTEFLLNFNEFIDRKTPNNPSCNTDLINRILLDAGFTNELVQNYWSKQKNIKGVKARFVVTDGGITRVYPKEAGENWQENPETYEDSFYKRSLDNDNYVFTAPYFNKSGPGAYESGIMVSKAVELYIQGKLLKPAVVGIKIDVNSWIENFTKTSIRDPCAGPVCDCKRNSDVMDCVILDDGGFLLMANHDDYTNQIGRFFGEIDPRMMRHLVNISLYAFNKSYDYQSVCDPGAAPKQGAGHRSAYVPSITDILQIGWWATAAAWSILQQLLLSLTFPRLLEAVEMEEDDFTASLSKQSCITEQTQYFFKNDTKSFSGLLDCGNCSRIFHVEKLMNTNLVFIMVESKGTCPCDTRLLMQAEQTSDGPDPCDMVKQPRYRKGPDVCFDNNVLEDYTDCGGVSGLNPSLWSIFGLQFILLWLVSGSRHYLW

Molecular target: thrombospondin-4 EGF domain construct, C-terminal HA tag (TSP4-EGF_HA) (human) (UniProt P35443)
Test: co-IP; tsA-201 cells co-transfected with α2δ-1 construct and TSP4_HA construct; whole cell lysate (1 mg protein) incubated overnight at 4 °C with 5 μg/ml rabbit anti-HA antibody, Protein-G or Protein-A/G-PLUS agarose; blot for α2δ-1

- binding: no binding
Substance: calcium channel α2δ-1 subunit (wild type) (from UniProt P54290 25-1091)
